PubChem BioAssay AID1259254 – NCATS | 2017
Assay: 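Genome-wide screen for genes that prevent DNA re-replication in cancer cells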 (primary screen). Cell system: human HCT116 colorectal cancer cells. Reagents: single siRNA against human genes. Timing: 3 days. Measurement: 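Imaged Hoechst DNA stain sorts each cell into a cycle phase by DNA amount; per plate, G2 fraction set to 0% for non-targeting and 100% for GMNN siRNA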. Scale: G2 robust z-score and G2 cells, % of GMNN control: higher = more G2 cells, more excess DNA replication. Hit rule: 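Active siRNAs have a G2 robust z of 5 or more median absolute deviations over the median, which in these data means about 38% or higher of GMNN control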.
Shown is an unselected part of about 59,000 reagents. About 1,550 of all reagents (2.6%) were called active. 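G2 share is only a proxy for re-replication; each gene was hit by three separate siRNAs, and active genes were retested.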 Entries without a mark were called inactive. The numbers tell different reagents against one gene apart. Further read-outs or replicates are left out here. Not given: the amount of reagent.

With knock-down of PBDC1 (GeneID 51260) #1 the results were G2 robust z-score 2.94; G2 cells, % of GMNN control 23.6.
For PBDC1 (GeneID 51260) #2 the deposit lists G2 robust z-score -0.119; G2 cells, % of GMNN control 2.13.
PBDC1 (GeneID 51260) #3 gave G2 robust z-score -0.171; G2 cells, % of GMNN control 1.76.
With knock-down of IL22RA1 (GeneID 58985) #1 the results were G2 robust z-score -0.405; G2 cells, % of GMNN control 0.119.
Silencing of IL22RA1 (GeneID 58985) #2 came out at: G2 robust z-score -1.13; G2 cells, % of GMNN control -5.
Silencing of IL22RA1 (GeneID 58985) #3 resulted in: G2 robust z-score 0.175; G2 cells, % of GMNN control 4.2.
Against SPATA31J1 (GeneID 285679) #1, the entry reads G2 robust z-score -0.181; G2 cells, % of GMNN control 1.69.
SPATA31J1 (GeneID 285679) #2 showed G2 robust z-score -0.112; G2 cells, % of GMNN control 2.18.
Against SPATA31J1 (GeneID 285679) #3, the values are G2 robust z-score -0.666; G2 cells, % of GMNN control -1.72.
Against SPATA31J1 (GeneID 285679) #4 the deposit lists G2 robust z-score 2.7; G2 cells, % of GMNN control 22.
Depletion of SPATA31J1 (GeneID 285679) #5 resulted in: G2 robust z-score 4.76; G2 cells, % of GMNN control 36.5.
For SPATA31J1 (GeneID 285679) #6, the entry reads G2 robust z-score 5.81 (active); G2 cells, % of GMNN control 43.9.
EPAS1 (GeneID 2034) #1 showed G2 robust z-score -0.938; G2 cells, % of GMNN control -3.63.
Silencing of EPAS1 (GeneID 2034) #2 came out at: G2 robust z-score 0.684; G2 cells, % of GMNN control 7.78.
Against EPAS1 (GeneID 2034) #3 the deposit lists G2 robust z-score 0.0815; G2 cells, % of GMNN control 3.54.
With knock-down of LINC01148 (GeneID 283585) #1, the screen gave G2 robust z-score 0.402; G2 cells, % of GMNN control 5.8.
Silencing of LINC01148 (GeneID 283585) #2 came out at: G2 robust z-score -0.381; G2 cells, % of GMNN control 0.29.
Knock-down of LINC01148 (GeneID 283585) #3 came out at: G2 robust z-score 0.408; G2 cells, % of GMNN control 5.84.
GTF2H2C_2 (GeneID 730394) #1 gave G2 robust z-score -0.257; G2 cells, % of GMNN control 1.16.
Knock-down of GTF2H2C_2 (GeneID 730394) #2 came out at: G2 robust z-score 1.01; G2 cells, % of GMNN control 10.1.
Knock-down of GTF2H2C_2 (GeneID 730394) #3 gave: G2 robust z-score -0.798; G2 cells, % of GMNN control -2.64.
After knock-down of SEPHS2 (GeneID 22928) #1, the screen gave G2 robust z-score 0.843; G2 cells, % of GMNN control 8.9.
SEPHS2 (GeneID 22928) #2 gave G2 robust z-score 0.155; G2 cells, % of GMNN control 4.06.
With knock-down of SEPHS2 (GeneID 22928) #3, the record shows G2 robust z-score -0.443; G2 cells, % of GMNN control -0.15.

Copied from the list:
Entry for IL22RA1 (GeneID 58985) #3 under “G2 cells, % of GMNN control”: 4.2
EPAS1 (GeneID 2034) #3, G2 robust z-score → 0.0815
